Results on one substance are retold here after patent publication US20230255953A1, “USE OF ROLUPERIDONE IN PREVENTING RELAPSE IN SCHIZOPHRENIA PATIENTS” (Minerva Neurosciences, Inc., priority 2022, published 2023).

The series concerns patients with schizophrenia. Description: Antipsychotic effectiveness after use of Roluperidone (time to symptom improvement). Type of series: in vivo, human. Conditions: MIN-101C03 and MIN-101C07.

Take “1H-Isoindol-1-one,2-[ [1-[2-(4-fluorophenyl)-2-oxoethyl]-4-piperidinyl]methyl]-2,3-dihydro-, hydrochloride, hydrate (1:1:2) [Roluperidone]”: the “Median time to symptom improvement after stopping study drug and starting an antipsychotic” value is, setting by setting: (patients on 32 mg Roluperidone in DB) 12 days; (patients on 64 mg Roluperidone in DB) 17 days.
